Data as given in PubChem BioAssay AID504784 (Drosophila RNAi Screening Center, 2011)
Assay: 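Genome-wide knock-down for genes giving too much or too little stored lipid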 (primary screen). System: Drosophila Kc167 embryonic cells. Knock-down reagent: long dsRNA against Drosophila genes, about 250 ng dsRNA per well. Timing: 4 days. Treatment: cells fed 400 µM oleic acid bound to BSA. Detection: 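Microscope images give a droplet-to-nucleus area ratio, taken as log and converted to a screen-wide B-score; higher values mean greater lipid storage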. Reading the numbers: droplet/nuclear area B-score: higher = more stored lipid (overstorage).
The deposit covers about 17,000 reagents; shown is an unselected part of those with a known target gene and a result. 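Each column is one replicate's B-score; the combined score over replicates was not deposited, so single values may mislead.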 A plus sign joins genes that one reagent is predicted to hit.

predicted target | amplicon | droplet/nuclear area B-score, replicate 1 | droplet/nuclear area B-score, replicate 2 | droplet/nuclear area B-score, replicate 3
CG7724 | DRSC10905 | 0.991 | 0.631 | -0.906
CG9698 | DRSC16539 | 0.879 | 0.458 | –
Gr47b | DRSC05275 | -0.548 | -0.912 | –
Spps | DRSC15856 | 0.411 | -3.06 | –
Spps | DRSC23206 | 0.586 | 0.0217 | –
psidin | DRSC15660 | 1.59 | 0.0491 | –
gdrd | DRSC10020 | -0.127 | 0.164 | –
esg | DRSC03530 | 0.905 | -1.59 | –
CG11550 | DRSC14326 | 0.828 | -0.227 | –
Dus3 | DRSC02059 | -0.219 | 0.32 | –
Su(var)2-10 | DRSC07721 | -2.85 | 0.104 | –
CG18180 | DRSC10304 | -0.584 | -0.0925 | –
JTBR | DRSC08667 | -0.135 | -1.45 | –
CG7810 | DRSC03072 | -2.63 | -0.0881 | –
glec | DRSC16958 | 1.81 | 0.111 | –
UbcE2H | DRSC18221 | 1.29 | 0.57 | 0.0146
Mi-2 | DRSC11222 | -0.122 | 2.73 | –
CG13097 | DRSC02199 | -0.918 | -1.88 | –
CG15754 | DRSC19719 | -2.71 | -1.8 | -0.687
Vps51 | DRSC06519 | 0.857 | 1.3 | –
CG7728 | DRSC10907 | 0.803 | 0.0147 | 0.231
mag | DRSC11787 | -0.818 | -0.34 | 1.79
zyd | DRSC20716 | 0.11 | -0.0023 | –
Bem46 | DRSC00275 | -0.178 | 0.665 | –
HGTX | DRSC09319 | 1.1 | 0.247 | –
HGTX | DRSC11181 | 1.1 | 0.77 | –
BORCS7 + CG13430 | DRSC06392 | -0.00295 | – | –
BORCS7 + CG13430 | DRSC06707 | 1.08 | 1.42 | –
CG1958 | DRSC18196 | 1.51 | -1.02 | –
CG7695 | DRSC16289 | -0.218 | 0.44 | –
HLH4C | DRSC18670 | -0.352 | 0.497 | 4.06
HLH4C | DRSC21322 | -0.858 | 0.596 | –

The list goes on (5 carried over from the part before).
predicted target | amplicon | droplet/nuclear area B-score, replicate 1 | droplet/nuclear area B-score, replicate 2 | droplet/nuclear area B-score, replicate 3
BORCS7 + CG13430 | DRSC06707 | 1.08 | 1.42 | –
CG1958 | DRSC18196 | 1.51 | -1.02 | –
CG7695 | DRSC16289 | -0.218 | 0.44 | –
HLH4C | DRSC18670 | -0.352 | 0.497 | 4.06
HLH4C | DRSC21322 | -0.858 | 0.596 | –
CG15653 | DRSC04244 | 0.0339 | 0.624 | –
yip3 | DRSC04724 | -0.0823 | 0.908 | –
Rev1 | DRSC08264 | 0.575 | 0.362 | –
RabGGTa | DRSC12189 | 1.45 | -0.0604 | –
Vsx2 | DRSC17397 | -0.878 | -0.797 | –
Vsx2 | DRSC18087 | 0.602 | 0.102 | –
Vsx2 | DRSC18088 | -0.522 | -0.946 | -0.383
Vsx2 | DRSC18089 | 0.868 | 0.837 | -1.76
Vsx2 | DRSC23089 | -0.674 | -0.99 | –
Vsx2 | DRSC23273 | 2.15 | – | –
Alp6 | DRSC06710 | -0.284 | -1.46 | –
dare + CG30033 | DRSC22908 | 0.00933 | -0.0196 | –
CG33003 | DRSC22419 | -0.499 | 0.919 | –
opa | DRSC12384 | 1.1 | -0.582 | –
opa | DRSC22563 | -3.6 | 0.415 | –
opa | DRSC23152 | -1.76 | -1.11 | –
PMP34 | DRSC21939 | -1.56 | -0.0993 | –
phr | DRSC07662 | -1.49 | -0.283 | –
CG3339 | DRSC13821 | 2.43 | 0.983 | –
CG3339 | DRSC15479 | -2.21 | 1.55 | –
CG15431 | DRSC00446 | 0.72 | 0.0235 | –
indra | DRSC08558 | 0.268 | – | –
Rtnl2 | DRSC12609 | 0.429 | -0.618 | –
Rtnl2 | DRSC21655 | -0.116 | -0.358 | –
